Data set [1] deals with p53 DBD WT. Nature of the data set: EMSA. In general terms: A gel shift assay detects complexes by their altered migration in electrophoresis.
Data set [2] has as its system p53 DBD R249S. Nature of the data set: EMSA. Particulars: released from DNAJA2 by Hsp70 system, did not regain any DNA-binding activity.

Construct, isoform or probe ends are uncertain for at least one entry. No signal at the amounts used counts as a negative. For some of these results: At least one verdict was read from the data and is not stated in words by the source.

Consider “TGGCCATCAGGAACATGACCCAACATGTTGAGCTCTGGCA (double strand) [p21 promoter DNA oligo]”, for which the binding result is listed as “no binding” in data set [1] (aggregated p53 after incubation at elevated temperature without chaperone); “no binding” in data set [1] (p53 in complex with DNAJA2 (before Hsp70 release)); “binds” in data set [1] (untreated p53, 25 C); “no binding” in data set [2].

Values taken from paper doi:10.1101/2023.11.28.568993.
